Data taken from PubChem BioAssay AID1259415 (National Center for Advancing Translational Sciences (NCATS), 2018).
Out of some 410,000 compounds screened, about 18,000 (4.4%) were called active. Inconclusive results, whose numbers are uncertain, are shown with a selection of clear calls. Cut-off read from the data, not from the text of the source: active = activity change below about -60%; inconclusive = no clear call, values can overlap the other calls; inactive = above about -39%.
% is set by controls: 0 for no effect and ±100 for the full control effect.

Assay: qHTS Assay for inhibitors of the human cytomegalovirus (HCMV)
Settings: HFF cells, HCMV-luciferase reporter, 72 h; at 57.5 µM; hits give low values
Outline: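 Two-dose cell screen: HFF monolayers treated with compounds and infected with luciferase-expressing HCMV at 1 PFU/cell, 72 h at 37C, then lysed for luciferase measurement.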
With COc1ccc(NC(=O)C(=O)NCCO)cc1Cl the activity change, negative = inhibition was inactive: 20.6%.
For COc1ccc(C2CC2/C(=N/O)c2ccccn2)cc1 (stereo not given), the activity change, negative = inhibition was inactive: -2.67%.
For CC(C)(C)CC(=O)Nc1cc(S(=O)(=O)N2CCOCC2)ccc1N1CCCC1, the activity change, negative = inhibition was inconclusive: -46.9%.
For CCOC(=O)N1CCN(C(=O)/C(=C/c2ccc(N(C)C)cc2)NC(=O)c2ccccc2)CC1, the activity change, negative = inhibition was inconclusive: -57.7%.
With Cc1ccccc1CN1C(=O)C(O)(CC(=O)c2ccncc2)c2ccccc21 (stereo not given) the activity change, negative = inhibition was inconclusive: -50.1%.
With Cc1ccc(NC(=O)Cn2c(=O)oc3cc(S(=O)(=O)NCc4ccccc4)ccc32)cc1 the activity change, negative = inhibition was inconclusive: -52%.
For COc1ccc(C2CCCN2CC(O)COc2ccccc2C(C)C)cc1 (stereo not given), the activity change, negative = inhibition was inconclusive: -46.7%.
In the case of O=C(Nc1ccc(S(=O)(=O)N2CCCCC2)cc1)c1ccc(F)cc1, the activity change, negative = inhibition was inconclusive: -44.9%.
With COc1cc(/C=N/NC(=O)c2cc(C)n(-c3ccc(F)cc3)c2C)cc(OC)c1O the activity change, negative = inhibition was inconclusive: -46%.
In the case of O=C(CN(Cc1ccccc1F)C(=O)c1csnn1)NCc1ccc2c(c1)OCO2, the activity change, negative = inhibition was inactive: -15.7%.
With O=C(Nc1ccccc1)c1ccc(Br)o1 the activity change, negative = inhibition was active: -62.5%.
With COc1ccc2nc(C)cc(Nc3ccccc3O)c2c1 the activity change, negative = inhibition was inconclusive: -56.5%.
In the case of CCOC(=O)C1CCN(C(=O)c2ccc3c(=O)n4nc(Nc5cc(C)ccc5C)sc4nc3c2)CC1, the activity change, negative = inhibition was inconclusive: -53.7%.
In the case of COc1cc(OC)nc(Nc2nc(C(N)Cc3ccc(C(F)(F)F)cc3)cs2)n1 (stereo not given), the activity change, negative = inhibition was active: -85.2%.
With COc1ccc(CNC(=O)CCSc2ccc(F)cc2)cc1OC the activity change, negative = inhibition was inconclusive: -41.8%.
With CC(NC(=O)c1ccc(NC(=O)c2ccco2)cc1)c1ccccc1 (stereo not given) the activity change, negative = inhibition was inconclusive: -59.6%.
With CCOc1cc(CNCc2ccccn2)ccc1OCC(=O)NC(C)(C)C the activity change, negative = inhibition was inconclusive: -58.4%.
For NC(=O)c1cc(S(=O)(=O)NC2CCCCC2)co1, the activity change, negative = inhibition was inactive: -10.6%.
In the case of CCN(CC)C(=O)c1cccc(-c2csc(C(C)(O)c3ccccc3)n2)c1 (stereo not given), the activity change, negative = inhibition was inconclusive: -41.4%.
With Cc1cccc(N=C2NC(=O)/C(=C/c3cccn3C)S2)c1C the activity change, negative = inhibition was inconclusive: -48.5%.
For CN1CCCN(c2cc(-c3ccc4ccccc4c3)nc3ccnn23)CC1, the activity change, negative = inhibition was active: -90.6%.
For C#CCN(C[C@H]1[C@H](OC(=O)Nc2cccs2)[C@H](OC(=O)Nc2cccs2)CN(C(=O)OC(C)C)N1C(=O)OC(C)C)S(=O)(=O)c1ccc(C)cc1, the activity change, negative = inhibition was active: -79%.
In the case of COc1ccc(NC2=NCC(Cc3ccc(Br)cc3)S2)cc1 (stereo not given), the activity change, negative = inhibition was inconclusive: -47.6%.
With Cc1nc2ccccc2nc(C)c1=NOCc1cccc(Cl)c1 the activity change, negative = inhibition was inactive: 71%.
For Cc1ccc(CNC(=O)CCc2nnc3ccc(N4CCC5(CC4)OCCO5)nn23)cc1, the activity change, negative = inhibition was inconclusive: -50.4%.
With CCCCN(CC)CCCNC(=O)c1cc2c(=O)[nH]c3ccccc3c2s1 the activity change, negative = inhibition was inconclusive: -45.4%.
With COC(=O)c1c(C)oc2ccc(NS(=O)(=O)c3cc(OC)ccc3OC)cc12 the activity change, negative = inhibition was active: -61.6%.
For CCN(C(=O)Cn1c(=O)oc2cc(S(=O)(=O)N3CCOCC3)ccc21)c1ccccc1, the activity change, negative = inhibition was inactive: -34.3%.
For CCOc1ccc(CCNC(=O)CN2N=C(c3ccccc3)CCC2=O)cc1OCC, the activity change, negative = inhibition was inconclusive: -52.8%.
In the case of Nc1nonc1-n1nnc(C(=O)N/N=C/c2ccc(OCc3ccc(F)cc3)cc2)c1COc1ccccc1, the activity change, negative = inhibition was active: -73.1%.
In the case of Cc1cc(C)c(NS(=O)(=O)c2ccccc2)c(C)c1NS(=O)(=O)c1ccccc1, the activity change, negative = inhibition was active: -72%.
In the case of Cc1cc(C)c(NC(=S)NC(=O)c2ccc(-c3ccccc3)cc2)c(C)c1, the activity change, negative = inhibition was active: -84%.
For COc1ccc2nc(NN=C(C)c3ccccn3)cc(C)c2c1, the activity change, negative = inhibition was active: -98.7%.
For CCOC(=O)Cc1csc(NC(=O)c2ccc(F)cc2)n1, the activity change, negative = inhibition was inactive: -16.2%.
With CC(/C=C/c1ccccc1)=N\Nc1ccccc1[N+](=O)[O-] the activity change, negative = inhibition was active: -72.5%.
With COc1ccc(S(=O)(=O)N2CCC3(CC2)OCCN3S(=O)(=O)c2ccc(OC)cc2)cc1 the activity change, negative = inhibition was inconclusive: -46.9%.
In the case of C=CCn1c(SCc2cc(=O)n3ccsc3n2)nc2scc(C3CC3)c2c1=O, the activity change, negative = inhibition was inactive: 16.8%.
With Cc1c(C(=N)C(C#N)C#N)c(=N)oc2c1ccc1ccccc12 the activity change, negative = inhibition was active: -74.8%.
For CN(C)CCCN1c2ccccc2CCc2ccc(Cl)cc21, the activity change, negative = inhibition was active: -67.2%.
With O=C(O)c1cc2n(n1)C(C(F)(F)F)CC(C1CC1)N2 (stereo not given) the activity change, negative = inhibition was inconclusive: -45.1%.
For COc1ccc(NC(=O)c2noc(C(C)C)c2[N+](=O)[O-])cc1, the activity change, negative = inhibition was inconclusive: -43.2%.
In the case of Cc1cccc(NC(=O)c2cc(Cl)ccc2[N+](=O)[O-])c1, the activity change, negative = inhibition was active: -83.5%.
In the case of O=C(COC(=O)c1ccc(O)cc1)Nc1ccccc1[N+](=O)[O-], the activity change, negative = inhibition was inconclusive: -41.4%.
For COc1cc(C#N)ccc1OCC(=O)NCCC1=CCCCC1, the activity change, negative = inhibition was inconclusive: -49.5%.
In the case of Cc1csc(NC(=O)CSc2nc(C(C)C)nc3c2c(=O)n(C)c(=O)n3C)n1, the activity change, negative = inhibition was inconclusive: -53.6%.
For CCOC(=O)c1cc(C)n(CC2CCC(C(=O)Nc3ccc(C)c(F)c3)CC2)c1C (stereo not given), the activity change, negative = inhibition was inconclusive: -56.9%.
For Nc1nnc(-c2cccnc2)s1, the activity change, negative = inhibition was inactive: -7.58%.
In the case of COc1ccc(-n2c(C)cc(C(=O)CSc3nnc(-c4ccoc4C)n3C)c2C)cc1, the activity change, negative = inhibition was inconclusive: -45.8%.
In the case of CCCOC(=O)CSC1=C(C#N)C(c2ccccc2OCC)C(C#N)C(=O)N1 (stereo not given), the activity change, negative = inhibition was inconclusive: -40.6%.
With Cc1ccccc1-n1nc(CO)c(C(=O)NCc2cccs2)n1 the activity change, negative = inhibition was inactive: -39.7%.
With CCOC(=O)CCC(NC(=O)CC(=O)NC(CCC(=O)OCC)C(=O)OCC)C(=O)OCC (stereo not given) the activity change, negative = inhibition was active: -95.7%.
In the case of C#CC1(O)CCC2C3CCC4=Cc5oncc5CC4(C)C3CCC21C (stereo not given), the activity change, negative = inhibition was inconclusive: -50.4%.
For O=C(C1CCN(Cc2cccs2)CC1)N1CCN(Cc2ccc3c(c2)OCO3)CC1, the activity change, negative = inhibition was active: -104%.
For CC1=C(C(=O)OCc2ccccc2)C(c2ccccc2OS(=O)(=O)c2ccc([N+](=O)[O-])cc2)NC(=O)N1CCCC(=O)O (stereo not given), the activity change, negative = inhibition was inactive: 13.8%.
In the case of CN(C(=O)COC(=O)c1cc(NS(=O)(=O)c2cc([N+](=O)[O-])ccc2Cl)ccc1O)C1CCCCC1, the activity change, negative = inhibition was inconclusive: -40.6%.
For CCN(CC)C(=O)[C@H]1C[C@H](CC(=O)NCC23CC4CC(CC(C4)C2)C3)C(=O)N2CCc3c([nH]c4cc(CCC(=O)N(C)C)ccc34)[C@]12C, the activity change, negative = inhibition was inconclusive: -46.3%.
In the case of O=C(COc1ccccc1)NCC(=O)Nc1ccc(S(=O)(=O)NCc2ccco2)cc1, the activity change, negative = inhibition was active: -103%.
In the case of Cc1c(Cl)cccc1-n1cnc(=O)c2ccccc21, the activity change, negative = inhibition was inconclusive: -45.7%.
For CCOc1ccc(CCNC(=O)COC(=O)c2cc(OC)cc(OC)c2)cc1OCC, the activity change, negative = inhibition was inactive: -26.5%.
With CCc1c(C)nc2ncnn2c1NCCc1ccc(Cl)cc1 the activity change, negative = inhibition was inconclusive: -59.2%.
With CCCc1ccc(C(=O)NC(=O)c2ccccc2O)cc1 the activity change, negative = inhibition was active: -88.5%.
With Cc1ccc(CNC(=O)C2CCC(=O)N(CCc3cccc(F)c3)C2)cc1 (stereo not given) the activity change, negative = inhibition was inactive: 30.3%.
In the case of CC(C)(C)c1ccc(-n2ncc3c2CCCC3NC(=O)CCCn2cncn2)cc1 (stereo not given), the activity change, negative = inhibition was inconclusive: -47.8%.
In the case of CCC1CCCCN1CCCNC(=O)CN1C(=O)CSc2ccc(S(=O)(=O)N3CCOCC3)cc21 (stereo not given), the activity change, negative = inhibition was inconclusive: -60%.
In the case of Cn1nc(C(F)(F)F)c(-c2ccc(Br)cc2)c1NC(=O)Nc1ccc(F)cc1F, the activity change, negative = inhibition was active: -92.3%.
In the case of COc1cc(/C=C2\C(=N)N3N=C(S(C)(=O)=O)SC3=NC2=O)cc(OC)c1OCCOc1ccccc1C, the activity change, negative = inhibition was inconclusive: -40.1%.
With Cc1cccc(C)c1NC(=S)N/N=C/c1ccc(OCCC(C)C)cc1 the activity change, negative = inhibition was inconclusive: -50.9%.
For O=C(NCc1ccc2c(c1)OCO2)C1CCCN(S(=O)(=O)c2cccc3nonc23)C1 (stereo not given), the activity change, negative = inhibition was inconclusive: -42.9%.
For OC1(c2ccccc2)C/C(=N\n2cnnc2)C=C1c1ccccc1 (stereo not given), the activity change, negative = inhibition was inactive: 60.6%.
With CC(C)(C)C(=O)NCCc1nc(-c2ccccc2)no1 the activity change, negative = inhibition was inconclusive: -46%.
In the case of CCn1cc(SCC(=O)NCc2ccc3c(c2)OCO3)c2ccccc21, the activity change, negative = inhibition was inactive: 26.5%.
In the case of CCN(CC(=O)N1CCCCCC1)S(=O)(=O)c1ccc(C)cc1, the activity change, negative = inhibition was inactive: -4.46%.
In the case of CCN(C(=O)c1cc2c(=O)[nH]c3ccc(C)cc3c2s1)c1ccccc1C, the activity change, negative = inhibition was inconclusive: -43.3%.
With Fc1ccccc1Cn1c(-c2ccccc2)nc2ccccc21 the activity change, negative = inhibition was active: -61.3%.
In the case of COC(=O)c1ccc(NC(=S)NCC2CC2)cc1, the activity change, negative = inhibition was inconclusive: -41.6%.
In the case of O=C(O)c1cn(C2CC2)c2cc(N3CCN(S(=O)(=O)c4ccc5c(c4)OCCO5)CC3)c(F)cc2c1=O, the activity change, negative = inhibition was inconclusive: -45.7%.
For COc1cccc(C2C(C(=O)Nc3cccnc3)=C(C)Nc3nnnn32)c1OC (stereo not given), the activity change, negative = inhibition was active: -69.2%.
For O=C(CSc1nnc(-c2ccccc2O)o1)NC1CCCCC1, the activity change, negative = inhibition was inconclusive: -41.2%.
In the case of CCOC(=O)c1ccc(NC(=O)COc2ccccc2CNCCc2ccccc2)cc1, the activity change, negative = inhibition was active: -65.4%.
For CC(=O)OC1CC[C@]2(C#N)[C@H]3CC[C@]4(C)[C@H](C5C=CC(=O)O5)CCC4(O)C3CCC2(O)C1 (stereo not given in full), the activity change, negative = inhibition was active: -93.3%.
For CC12CCC(=O)N1C(C(=O)N1CCN(S(=O)(=O)c3ccc(Br)cc3Cl)CC1)CS2 (stereo not given), the activity change, negative = inhibition was inconclusive: -40.7%.
In the case of O=C(NCc1ccccn1)C1CC(c2ccccc2Cl)=NO1 (stereo not given), the activity change, negative = inhibition was inactive: -35.9%.
For Cc1ccc(NC(=O)c2cc(S(=O)(=O)N3CCCCC3)ccc2N2CCOCC2)cc1F, the activity change, negative = inhibition was inactive: 5.93%.
With O=C(NCC1CC1)Nc1ccc(Cl)cc1 the activity change, negative = inhibition was active: -94.5%.
With COc1ccc(CCNC(=O)c2ccc(CNS(=O)(=O)c3cc(C)ccc3C)cc2)cc1OC the activity change, negative = inhibition was inconclusive: -43.5%.
